{"source": "patent US20250281480A1", "about": "“PHARMACEUTICAL DRY POWDER INHALATION FORMULATION” (Bayer Aktiengesellschaft, priority 2021, published 2025)", "assay": "Phase I, single inhaled, inhaled + charcoal, oral and intravenous doses in healthy male subjects: plasma concentrations, lung deposition", "type": "in vivo, human", "conditions": "1000 μg", "description": "Healthy white male subjects, aged 18 to 45 years with a body mass index (BMI) above/equal 18.5 and below/equal 29.9 kg/m^2 were treated in a clinical phase I study with a single inhaled dose of 1000 μg (nominal dose), a single inhaled dose of 1000 μg (nominal dose)+charcoal block, a single oral dose of 1000 μg and a single infusion over 2 h of 100 μg of example 4. […] The emitted dose can be calculated/determined as followed: nominal dose−(remains in the capsule+remains in the device). After inhalation of the dry powder, one part of the emitted dose enters the gastrointestinal tract (GT and is called the oral part of the emitted dose, the other part of the emitted dose which reaches the lung through the respiratory airways is called the lung dose and represents the lung deposited dose. As the lung is the target organ of the effect, the lung deposited dose must be quantified. Lung deposition can be indirectly estimated, by determining the part of the nominal dose which reaches the GIT and the remains in the capsule and the device. To investigate and determine lung deposition, the following investigations were done (see also FIG. 59): • 1—Inhaled application of a single dose of 1000 μg of the dry powder. • 2—Inhaled application of a single dose of 1000 μg of the dry powder in combination with oral administration of charcoal block. […]", "note": "At least one read-out could not be matched to a standard name with certainty."}
{"smiles": "O=C(O)c1ccc(CCN(CCc2ccccc2OCc2ccc(-c3ccc(C(F)(F)F)cc3)cc2Cl)[C@H]2CCCc3nc(C(=O)O)ccc32)cc1", "note": "[Example 4, (5S)—{[2-(4-Carboxyphenyl)ethyl][2-(2-{[3-chloro-4′-(trifluoromethyl)biphenyl-4-yl]methoxy}phenyl)-ethyl]amino}-5,6,7,8-tetrahydroquinoline-2-carboxylic Acid as Monohydrate I]", "values": [{"measurement": "relative bioavailability, inhaled with charcoal block to inhaled without charcoal block", "result": 86.9, "unit": "%"}]}
